The values below are quoted from earlier work in paper PMC4620497 (Scientific Reports, 2015).

For the series, the system named is kinases screened. Also noted: method as in ref 18; Karaman MW, et al. 2008. As to conditions: number of target hits/number of kinases screened; Karaman MW, et al. 2008; cited from earlier work.
As to `CC(C)(C)c1cc(NC(=O)Nc2ccc(-c3cn4c(n3)sc3cc(OCCN5CCOCC5)ccc34)cc2)no1` [AC220, reference compound], the “S(100nM)” value is listed as 0.028 and the “S(3μM)” value is 0.067.
On to `C[C@]12O[C@H](C[C@]1(O)CO)n1c3ccccc3c3c4c(c5c6ccccc6n2c5c31)CNC4=O` [CEP-701], for which the “S(100nM)” value is listed as 0.46 and the “S(3μM)” value is given as 0.81.
On to `Cc1nc(Nc2ncc(C(=O)Nc3c(C)cccc3Cl)s2)cc(N2CCN(CCO)CC2)n1` [Dasatinib], for which the “S(100nM)” value is 0.159 and the “S(3μM)” value was 0.283.
On to `C#Cc1cccc(Nc2ncnc3cc(OCCOC)c(OCCOC)cc23)c1` [Erlotinib], for which the “S(100nM)” value is 0.014 and the “S(3μM)” value is 0.152.
`COc1cc2ncnc(Nc3ccc(F)c(Cl)c3)c2cc1OCCCN1CCOCC1` [Gefitinib]: the “S(100nM)” value is listed as 0.007 and the “S(3μM)” value was 0.072.
As for `Cc1ccc(NC(=O)c2ccc(CN3CCN(C)CC3)cc2)cc1Nc1nccc(-c2cccnc2)n1` [Imatinib], the “S(100nM)” value was 0.031 and the “S(3μM)” value is given as 0.066.
Consider `CS(=O)(=O)CCNCc1ccc(-c2ccc3ncnc(Nc4ccc(OCc5cccc(F)c5)c(Cl)c4)c3c2)o1` [Lapatinib], for which the “S(100nM)” value is on record as 0.010 and the “S(3μM)” value is 0.010.
Regarding `COc1cc2c(N3CCN(C(=O)Nc4ccc(OC(C)C)cc4)CC3)ncnc2cc1OCCCN1CCCCC1` [MLN-518], the “S(100nM)” value is 0.014 and the “S(3μM)” value is given as 0.056.
Turning to `CNC(=O)c1cc(Oc2ccc(NC(=O)Nc3ccc(Cl)c(C(F)(F)F)c3)cc2)ccn1` [Sorafenib], the “S(100nM)” value is 0.045 and the “S(3μM)” value is listed as 0.18.
As for `CCN(CC)CCNC(=O)c1c(C)[nH]c(/C=C2\C(=O)Nc3ccc(F)cc32)c1C` [Sunitinib], the “S(100nM)” value is 0.19.
